Measurements as given in paper PMC4837477.
These are yes or no findings as the source states them, for the method shown.

Amino acid sequences for entries named in this document (tags omitted).
UniProt Q6FSK0: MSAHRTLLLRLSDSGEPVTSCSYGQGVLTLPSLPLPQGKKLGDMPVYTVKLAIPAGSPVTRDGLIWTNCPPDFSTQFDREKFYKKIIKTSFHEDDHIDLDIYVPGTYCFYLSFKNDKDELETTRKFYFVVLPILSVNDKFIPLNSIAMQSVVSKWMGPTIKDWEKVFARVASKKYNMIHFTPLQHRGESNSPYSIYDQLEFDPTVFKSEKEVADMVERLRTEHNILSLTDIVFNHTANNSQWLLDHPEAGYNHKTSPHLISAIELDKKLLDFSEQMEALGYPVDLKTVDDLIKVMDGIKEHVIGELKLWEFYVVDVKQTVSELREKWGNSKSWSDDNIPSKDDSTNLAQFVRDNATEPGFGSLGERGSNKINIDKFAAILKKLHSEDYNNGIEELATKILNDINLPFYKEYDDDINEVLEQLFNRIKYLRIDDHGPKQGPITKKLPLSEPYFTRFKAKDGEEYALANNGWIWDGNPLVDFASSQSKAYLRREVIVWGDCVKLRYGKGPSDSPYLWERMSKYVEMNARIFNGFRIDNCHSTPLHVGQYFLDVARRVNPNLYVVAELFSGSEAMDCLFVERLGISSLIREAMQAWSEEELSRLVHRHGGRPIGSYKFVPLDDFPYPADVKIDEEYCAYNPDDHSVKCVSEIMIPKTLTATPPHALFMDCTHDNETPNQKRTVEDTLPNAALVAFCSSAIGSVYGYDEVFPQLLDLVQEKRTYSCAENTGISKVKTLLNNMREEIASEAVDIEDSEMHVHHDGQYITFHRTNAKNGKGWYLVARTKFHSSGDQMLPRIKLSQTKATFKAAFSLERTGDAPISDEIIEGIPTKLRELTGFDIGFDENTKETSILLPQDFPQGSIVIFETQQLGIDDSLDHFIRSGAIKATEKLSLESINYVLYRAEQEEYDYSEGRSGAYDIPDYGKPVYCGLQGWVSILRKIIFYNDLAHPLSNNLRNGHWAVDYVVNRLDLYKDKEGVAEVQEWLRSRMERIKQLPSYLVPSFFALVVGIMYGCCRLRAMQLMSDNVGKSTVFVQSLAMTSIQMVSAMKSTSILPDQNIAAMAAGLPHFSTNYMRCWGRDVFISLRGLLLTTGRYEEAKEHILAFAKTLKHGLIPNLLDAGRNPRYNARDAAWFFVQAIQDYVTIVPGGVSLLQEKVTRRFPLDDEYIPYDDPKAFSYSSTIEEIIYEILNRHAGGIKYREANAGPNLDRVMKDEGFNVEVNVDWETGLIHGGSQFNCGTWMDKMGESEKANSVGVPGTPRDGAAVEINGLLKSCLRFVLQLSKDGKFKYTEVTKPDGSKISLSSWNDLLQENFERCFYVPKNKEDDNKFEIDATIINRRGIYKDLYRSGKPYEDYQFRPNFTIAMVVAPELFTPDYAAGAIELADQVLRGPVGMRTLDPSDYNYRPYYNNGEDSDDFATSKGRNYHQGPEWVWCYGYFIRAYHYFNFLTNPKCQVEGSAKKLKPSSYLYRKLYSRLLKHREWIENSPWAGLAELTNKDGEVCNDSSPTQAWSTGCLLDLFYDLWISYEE

Target: Candida glabrata glycogen debranching enzyme (Candida glabrata) (UniProt Q6FSK0)
Assay: dynamic light scattering; DynaPro Titan, 20 °C; CgGDE at 20 mg ml^-1 in 20 mM Tris pH 7.5, 200 mM NaCl, 2 mM DTT; both purified

**Q.** Which binding does the source give for “Candida glabrata glycogen debranching enzyme (from UniProt Q6FSK0 1-1528)” here?
**A.** no binding (tested: 20 mg ml^-1)
